The source of these data is PubChem BioAssay AID248 (DTP/NCI, 2004).

In the assay the test system is L1210 leukemia ip in BDF1 mice, survival T/C. In words: NCI In Vivo Anticancer Drug Screen. Data for tumor model L1210 Leukemia (intraperitoneal) in B6D2F1 (BDF1) mice. The note with it: T/C endpoint: mean survival time, higher T/C = longer survival.
[1] abbreviates: dose: 400.0 mg/kg/injection, schedule: Q04DX003 (ip), vehicle: saline.
Setting [2] is: dose: 400.0 mg/kg/injection, schedule: Q01DX009 (ip), vehicle: saline with Tween-80.
[3] abbreviates: dose: 400.0 mg/kg/injection, schedule: Q04DX003 (ip), vehicle: saline with Tween-80.
[4] abbreviates: dose: 300.0 mg/kg/injection, schedule: Q01DX001 (ip), vehicle: other.
[5] abbreviates: dose: 200.0 mg/kg/injection, schedule: Q01DX009 (ip), vehicle: saline with Tween-80.

The list is a part of this screen's results and no random one: it is rich in T/C values a quarter to a half above the control, in often repeated tests (any T/C) and in doses without a T/C. Further doses and runs are listed elsewhere. T/C is the treated group as % of the vehicle group. Some doses have a count of surviving animals in place of a T/C: the source files T/C as zero there, which appears to mark a toxic dose or a test without result, not a measured value. Some survivor counts are full or nearly so, which does not show that the dose was tolerated: the source hardly ever lists a survival T/C far under the control, and the zero likely stands for such cases as well. Survivors were counted at the toxicity check, usually on the fifth day, unless a day is given; later deaths do not show. Schedule codes are those of the source, read here as Q, the interval in days (D) or hours (H), X, the number of doses. Some schedule codes hold Z or #, which are not explained here. Some entries were tested several times; the results are listed from low to high. For survival time, the PubChem record calls one and a half times the control and up active, and a quarter to a half above the control has no call in these data; cut-offs in other NCI protocols can differ. Some T/C values are followed by the survivors on the day toxicity was checked, most often the fifth; where none is given, no animal had died by that day.

As for `Fc1ccc(NC(=S)N/N=C\c2ccc(Cl)cc2Cl)cc1`, for the setting “dose: 480.0 mg/kg/injection, schedule: Q01DX Z (ip), vehicle: methylcellulose (MC)”, the survivor count is given as 2 of 6.
Consider `CC1(C)C2CC=C(CCOC(=O)COc3cc(Cl)c(Cl)cc3Cl)C1C2` (stereo unspecified), for which the survivor count (dose: 500.0 mg/kg/injection, schedule: Q01DX Z (ip), vehicle: other) was 0 of 6.
Turning to `CC1=CCS(=O)(=O)C1`, under setting [1], the survivor count is 0 of 6.
Regarding `ClC1=C(Cl)C2(Cl)CC1(Cl)C1OC12` (stereo unspecified), the survivor count runs as follows: (dose: 100.0 mg/kg/injection, schedule: Q01DX009 (ip), vehicle: other) 0 of 6; (dose: 200.0 mg/kg/injection, schedule: Q01DX009 (ip), vehicle: other) 0 of 6; (dose: 400.0 mg/kg/injection, schedule: Q01DX009 (ip), vehicle: other) 0 of 6.
Turning to `CN(N=O)C(=O)NNC(=O)N(C)N=O`, the T/C (dose: 10.0 mg/kg/injection, schedule: Q01DX Z (ip), vehicle: carboxymethylcellulose (CMC)) is 125 % of control; the T/C (dose: 12.5 mg/kg/injection, schedule: Q01DX Z (ip), vehicle: carboxymethylcellulose (CMC)) is 140 % of control; the T/C (dose: 15.0 mg/kg/injection, schedule: Q01DX Z (ip), vehicle: carboxymethylcellulose (CMC)) is 136 % of control [4 of 6 alive]; the T/C (dose: 25.0 mg/kg/injection, schedule: Q01DX Z (ip), vehicle: carboxymethylcellulose (CMC)) was 145 % of control; the T/C (dose: 30.0 mg/kg/injection, schedule: Q01DX Z (ip), vehicle: carboxymethylcellulose (CMC)) is 136 % of control. Moreover, the survivor count (dose: 40.0 mg/kg/injection, schedule: Q01DX Z (ip), vehicle: carboxymethylcellulose (CMC)) is given as 6 of 6 and the survivor count (dose: 100.0 mg/kg/injection, schedule: Q01DX Z (ip), vehicle: carboxymethylcellulose (CMC)) is reported as 0 of 6.
As for `CC(C)OC(=O)c1ccc(N)cc1S(N)(=O)=O`, the survivor count was 2 of 4 (dose: 200.0 mg/kg/injection, schedule: Q01DX001 (ip), vehicle: other) and 0 of 4 (dose: 400.0 mg/kg/injection, schedule: Q01DX001 (ip), vehicle: other).
In the case of `CCCCCCCCCCCC[n+]1ccc(C)cc1C`, the survivor count runs as follows: (dose: 0.8 mg/kg/injection, schedule: Q04DX003 (ip), vehicle: saline) 1 of 6; (dose: 0.9 mg/kg/injection, schedule: Q01DX009 (ip), vehicle: saline) 0 of 6; (dose: 1.35 mg/kg/injection, schedule: Q01DX009 (ip), vehicle: saline) 1 of 6; (dose: 1.6 mg/kg/injection, schedule: Q04DX003 (ip), vehicle: saline) 1 of 6; (dose: 3.2 mg/kg/injection, schedule: Q04DX003 (ip), vehicle: saline) 3 of 6.
On to `Nc1ccc(C(=O)CCCN2CCCCC2)cc1`, for which the survivor count by setting is: (dose: 100.0 mg/kg/injection, schedule: Q04DX003 (ip), vehicle: saline) 3 of 6; (dose: 200.0 mg/kg/injection, schedule: Q04DX003 (ip), vehicle: saline) 0 of 6; under setting [1], 0 of 6.
As for `Cc1ccc2nc(/C=C/c3ccc(N(C)C)cc3)cc(C)c2c1`, the survivor count (dose: 50.0 mg/kg/injection, schedule: Q01DX Z (ip), vehicle: carboxymethylcellulose (CMC)) is listed as 0 of 6.
With `COC(=O)c1c(Cl)c(Cl)c(Cl)c(Cl)c1C(=O)OC`, the survivor count was 3 of 6 under setting [2] and 2 of 6 under setting [3].
Consider `OCCCN=Cc1ccccc1O.OCCCN=Cc1ccccc1O.[Cu]`, for which the survivor count is listed as 0 of 6 (dose: 150.0 mg/kg/injection, schedule: Q01DX001 (ip), vehicle: other) and 0 of 6 under setting [4].
Take `NNC(=O)CNc1cccc(F)c1`: the survivor count (dose: 400.0 mg/kg/injection, schedule: Q04DX002 (ip), vehicle: Klucel (hydroxypropylcellulose) (HPC)) is 0 of 3.
For `COc1cc(C=Nc2cc(Br)c(O)c(Br)c2)ccc1N(CCCl)CCCl`, the T/C (dose: 9.6 mg/kg/injection, schedule: Q01DX009 (ip), vehicle: carboxymethylcellulose (CMC)) is 132 % of control [4 of 6 alive]; the T/C (dose: 14.6 mg/kg/injection, schedule: Q01DX001 (ip), vehicle: carboxymethylcellulose (CMC)) is 126 % of control; the T/C (dose: 22.0 mg/kg/injection, schedule: Q01DX001 (ip), vehicle: carboxymethylcellulose (CMC)) is 132 % of control; the T/C (dose: 33.0 mg/kg/injection, schedule: Q01DX001 (ip), vehicle: carboxymethylcellulose (CMC)) was 135 % of control; the T/C (dose: 50.0 mg/kg/injection, schedule: Q01DX001 (ip), vehicle: carboxymethylcellulose (CMC)) was 142 % of control [5 of 6 alive]. For the same compound, the survivor count (dose: 33.0 mg/kg/injection, schedule: Q01DX009 (ip), vehicle: carboxymethylcellulose (CMC)) was 4 of 6; the survivor count (dose: 50.0 mg/kg/injection, schedule: Q01DX009 (ip), vehicle: carboxymethylcellulose (CMC)) is 0 of 6; the survivor count (dose: 75.0 mg/kg/injection, schedule: Q01DX001 (ip), vehicle: carboxymethylcellulose (CMC)) is given as 4 of 6; the survivor count (dose: 100.0 mg/kg/injection, schedule: Q01DX001 (ip), vehicle: carboxymethylcellulose (CMC)) is 0 of 4 and 1 of 4; the survivor count (dose: 200.0 mg/kg/injection, schedule: Q01DX001 (ip), vehicle: carboxymethylcellulose (CMC)) was 0 of 4; the survivor count (dose: 400.0 mg/kg/injection, schedule: Q01DX001 (ip), vehicle: carboxymethylcellulose (CMC)) was 0 of 4.
Take `Nc1ccc([N+](=O)[O-])cc1C(O)(C(F)(F)F)C(F)(F)F` (tested in a mixture with another compound): under setting [2], the survivor count was 5 of 6.
In the case of `CCCCN(CCCC)c1ccc(C(=O)O)cc1`, the survivor count was 5 of 6 under setting [2] and 2 of 6 under setting [3].
Regarding `Cc1ccc(C)c(CN(C)C)c1O`, the survivor count (dose: 200.0 mg/kg/injection, schedule: Q01DX009 (ip), vehicle: Klucel (hydroxypropylcellulose) (HPC)) is 0 of 6; the survivor count (dose: 200.0 mg/kg/injection, schedule: Q04DX003 (ip), vehicle: Klucel (hydroxypropylcellulose) (HPC)) is on record as 6 of 6; the survivor count (dose: 400.0 mg/kg/injection, schedule: Q04DX003 (ip), vehicle: Klucel (hydroxypropylcellulose) (HPC)) was 6 of 6.
Take `NCC(c1ccccc1)C(Cc1ccccc1)[N+](=O)[O-]` (stereo unspecified): under setting [4], the survivor count was 1 of 6.
Consider `CSc1ccc(NC(=O)C(Cl)Cl)cc1`, for which the survivor count (dose: 200.0 mg/kg/injection, schedule: Q04DX002 (ip), vehicle: Klucel (hydroxypropylcellulose) (HPC)) is reported as 3 of 3.
`O=C(Nc1ccc(C2=NCCN2)cc1)C1CCC(C(=O)Nc2ccc(C3=NCCN3)cc2)CC1` (stereo unspecified): the T/C is 132 % of control (dose: 1.87 mg/kg/injection, schedule: Q01DX Z (ip), vehicle: carboxymethylcellulose (CMC)); 137 % of control (dose: 5.6 mg/kg/injection, schedule: Q01DX015 (ip), vehicle: methylcellulose (MC)); 135 % of control (dose: 7.5 mg/kg/injection, schedule: Q01DX Z (ip), vehicle: carboxymethylcellulose (CMC)); 142 % of control (dose: 62.0 mg/kg/injection, schedule: Q01DX Z (ip), vehicle: carboxymethylcellulose (CMC)); 138, 150, 151, 200 % of control (dose: 500.0 mg/kg/injection, schedule: Q01DX001 (ip), vehicle: methylcellulose (MC)); 171, 181, 213, 303 % of control (dose: 1000.0 mg/kg/injection, schedule: Q01DX001 (ip), vehicle: methylcellulose (MC)). Moreover, the survivor count is 3 of 6 (dose: 250.0 mg/kg/injection, schedule: Q01DX Z (ip), vehicle: carboxymethylcellulose (CMC)) and 2 of 6 (dose: 500.0 mg/kg/injection, schedule: Q01DX Z (ip), vehicle: carboxymethylcellulose (CMC)).
On to `O=C(NCCBr)Nc1ccc([N+](=O)[O-])cc1`, for which the survivor count under setting [5] was 3 of 3.
`Cc1cccc(C)c1NC(N)=NC(C)C`: the T/C by setting is: (dose: 50.0 mg/kg/injection, schedule: Q01DX001 (ip), vehicle: saline) 127 % of control; (dose: 100.0 mg/kg/injection, schedule: Q01DX001 (ip), vehicle: saline) 146 % of control; (dose: 200.0 mg/kg/injection, schedule: Q01DX001 (ip), vehicle: saline) 138 % of control.
Turning to `CCOc1ccc(/C=N/NC(C)=O)cc1OC`, under setting [5], the survivor count was 2 of 3.
